One data set deals with HeLa cells. In words: XTT cytotoxicity assay in HeLa cells. To be noted: IC50 in Vero cell line / IC50 in HeLa. As to the method: (§1) HeLa, U937, and Vero cell lines were maintained in culture flasks containing Eagle’s Minimum Essential Medium supplemented with 10% heat-inactivated FBS and 1% antibiotics (100 U/mL penicillin, 100 μg/mL streptomycin, and 250 μg/mL fungizone). The cells were grown at 37 °C in a humidified incubator set at 5% CO2. Cells were subcultured after they formed a monolayer on the flask. The cells were detached by treating them with trypsin-EDTA (0.25% trypsin containing 0.01% EDTA) for 10 minutes and then by adding complete medium to inhibit the reaction. Cytotoxicity was measured by the XTT method using the Cell Proliferation Kit II. The method described by Zheng et al. was used to perform the assay. Cells were seeded (100 μL) in a 96-well microtiter plate (concentration 1 × 10^5 cells/mL). The plate was then incubated for 24 h at 37 °C and 5% CO2 to allow the cells to attach to the bottom of the wells. The compounds were each prepared to a stock solution of 20 mg/mL and added to the microtiter plate. Serial dilutions were made to range from a concentration of 100 μg/mL–0.7 μg/mL for each compound. The microtiter plate was incubated for a further 72 h. […] After the incubation the absorbance of the color complex was read at 490 nm with a reference wavelength set at 690 nm. […] The results were analyzed using the GraphPad Prism 4 program.
For orientation: Formazan colour is commonly taken as a measure of viable cells.

The subject of a further data set is U937 cells. In words: XTT cytotoxicity assay in U937 cells. To be noted: IC50 in Vero cell line / IC50 in U937. As to the method:
as §1

Starred links: 1 amine or outer side, 2 acyl side, 3 side chain; linkers in the order of their positions; H or OH if unused. Positions of bridges follow the written chain, without caps; N, C: chain ends. Non-standard residues stand in square brackets, D forms with d. Residues, ends and D or L forms follow the SMILES beside them. Chains are numbered I, II in the order given. Actinocin(9to1) = Cc1c2oc3c(C)ccc(C(=O)[*:1])c3nc-2c(C(=O)[*:2])c(N)c1=O; NMeV = CN[C@H](C(=O)O)C(C)C; Sar = CNCC(=O)O

For `Cc1c2oc3c(C)ccc(C(=O)N[C@@H]4C(=O)N[C@H](C(C)C)C(=O)N5CCC[C@H]5C(=O)N(C)CC(=O)N(C)[C@@H](C(C)C)C(=O)O[C@@H]4C)c3nc-2c(C(=O)N[C@@H]2C(=O)N[C@H](C(C)C)C(=O)N3CCC[C@H]3C(=O)N(C)CC(=O)N(C)[C@@H](C(C)C)C(=O)O[C@@H]2C)c(N)c1=O` [Actinomycin D, reference compound] (I: T[dV]P[Sar][NMeV] / II: T[dV]P[Sar][NMeV]; ester I:1-I:C, II:1-II:C; linker I:N-II:N via Actinocin(9to1)), the “SI Values HeLa” value in the data set with HeLa cells stood at 1.7. Besides, in the data set with U937 cells, the “SI Values U937” value was 4.72.

`CCCCCCCCCCCCCC=CCCC=CC(O)C(CO)NC(=O)CCCCCCCCCCC` (stereo not drawn) [Compound 8, erythro-N-dodecanoyl-docosasphinga-(4E,8E)-dienine]: the “SI Values HeLa” value with HeLa cells worked out at 2.6.

The values are drawn from article PMC3877894, “Cytotoxic, Cytostatic and HIV-1 PR Inhibitory Activities of the Soft Coral Litophyton arboreum” (Marine Drugs, 2013).
